These results are taken from article PMC12519461, “Structural Exploitation of Cinnarizine Identified Novel Drug-Like Anthelmintic Agents Against Angiostrongylus cantonensis” (ACS Infectious Diseases, 2025).

Usually EC50 stands for the concentration at which the effect is half-maximal. Usually CC50 stands for the concentration giving 50% cytotoxicity. Lower therefore signals greater toxicity to the cells.

Where only a bound is given, the exact number is not on record here.

Assay type in all cases: cell-based
The test system of series [1] is A. cantonensis L3 larvae. Description: Anthelmintic activity against A. cantonensis infective third-stage larvae (motility/viability, 24 h). To be noted: Angiostrongylus cantonensis, in vitro, 21 °C, read-out: A. cantonensis EC50 (μM ± SEM) L3. On the procedure: (§1) Larvae were washed three times in RPMI 1640 medium supplemented with 100 U/mL penicillin and 100 μg/mL streptomycin. Approximately 50 larvae were allocated into individual wells of a 96-well plate containing 200 μL of final volume of RPMI medium. […] Approximately 50 larvae were transferred to each well of a 96-well plate containing RPMI medium. […] Larval viability was monitored at 0 and 24 h post-treatment. […] Assays were performed in triplicate and repeated three times.

Series [2] has as its system A. cantonensis L1 larvae. Description: Anthelmintic activity against A. cantonensis first-stage larvae (motility/viability, 24 h). The following applies: Angiostrongylus cantonensis, in vitro, 21 °C, read-out: A. cantonensis EC50 (μM ± SEM) L1. On the procedure:
as §1

Series [3] can be described thus: Cytotoxicity in HaCat cells (MTT, 72 h). To be noted: human, from 500 μM. How it is done:
Cytotoxicity was assessed using the MTT assay. After 72 h, MTT solution was added, followed by 3 h of incubation. Absorbance was measured at 595 nm using an Epoch Microplate Spectrophotometer (BioTek Instruments, Winooski, VT, USA). Assays were performed in triplicate and repeated three times.

With `C(=C\c1ccccc1)/CN1CCN(C(c2ccccc2)c2ccccc2)CC1` [compound 1, cinnarizine], the values for the EC50 in series [1] and in series [2] were 16.3 ± 1.8 µM and 45.9 ± 6.3 µM, respectively. The compound also yielded a cytotoxic concentration (CC50) at 72 h in series [3] above 500 µM.
